Measured values: PMC8287952, “PARP1 and CHK1 coordinate PLK1 enzymatic activity during the DNA damage response to promote homologous recombination-mediated repair” (Nucleic Acids Research, 2021)
These are yes or no findings as the source states them, for the method shown. Binding seen in cells or lysates may run through a third protein. Some entries that bind do so weakly or less than the wild type.

Protein sequences, listed by entry. Tags and fused reporters are not part of them.
UniProt P53350: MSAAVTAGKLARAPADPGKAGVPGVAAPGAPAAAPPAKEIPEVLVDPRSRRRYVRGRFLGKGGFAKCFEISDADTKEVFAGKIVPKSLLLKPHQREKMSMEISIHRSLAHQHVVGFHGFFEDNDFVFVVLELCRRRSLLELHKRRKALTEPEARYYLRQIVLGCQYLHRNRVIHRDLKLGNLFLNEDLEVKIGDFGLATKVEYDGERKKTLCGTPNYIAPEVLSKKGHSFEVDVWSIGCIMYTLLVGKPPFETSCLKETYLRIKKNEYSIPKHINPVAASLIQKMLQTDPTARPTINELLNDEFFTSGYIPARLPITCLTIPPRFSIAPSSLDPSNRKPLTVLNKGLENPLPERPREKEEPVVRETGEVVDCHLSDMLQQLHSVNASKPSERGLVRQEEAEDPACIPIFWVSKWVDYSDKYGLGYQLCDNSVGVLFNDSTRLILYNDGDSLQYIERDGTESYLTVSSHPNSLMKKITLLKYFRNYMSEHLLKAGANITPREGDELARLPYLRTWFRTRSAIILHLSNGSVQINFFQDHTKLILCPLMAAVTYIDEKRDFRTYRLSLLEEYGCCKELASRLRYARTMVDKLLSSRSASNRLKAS

Target: epitope-tagged PLK1 (UniProt P53350)
Assay: co-IP; epitope-tagged constructs (Supplementary Figures S4A-C); immunoprecipitation and immunoblotting as previously described

binding: binds
B1: CHK1 construct (1-265) (domain or fragment, UniProt O14757 1-265)
chain: MAVPFVEDWDLVQTLGEGAYGEVQLAVNRVTEEAVAVKIVDMKRAVDCPENIKKEICINKMLNHENVVKFYGHRREGNIQYLFLEYCSGGELFDRIEPDIGMPEPDAQRFFHQLMAGVVYLHGIGITHRDIKPENLLLDERDNLKISDFGLATVFRYNNRERLLNKMCGTLPYVAPELLKRREFHAEPVDVWSCGIVLTAMLAGELPWDQPSDSCQEYSDWKEKKTYLNPWKKIDSAPLALLHKILVENPSARITIPDIKKDRWY
